In patent publication US20240148779A1, “METHODS FOR THE TREATMENT OF PROTEINOPATHIES” (RENATUS INC., priority 2022, published 2024):

Tested on: Aβ42
Test: Zebrafish Alzheimer's model, amount of Aβ42 in the brain
Type: in vivo
Conditions: 5 days post-injection of Aβ42, FIG. 14

For `COc1cc2c(cc1OC)C(=O)C(CC1CCN(Cc3ccccc3)CC1)C2` (stereo not shown) [donepezil, Donepezil], which “amount of Aβ42 in the brain” value is on record?
The value was “did not”.
